For one substance, binding results are on record in article PMC8613218.

The chains behind the UniProt entries cited, without tags or fusion partners.
UniProt Q00417: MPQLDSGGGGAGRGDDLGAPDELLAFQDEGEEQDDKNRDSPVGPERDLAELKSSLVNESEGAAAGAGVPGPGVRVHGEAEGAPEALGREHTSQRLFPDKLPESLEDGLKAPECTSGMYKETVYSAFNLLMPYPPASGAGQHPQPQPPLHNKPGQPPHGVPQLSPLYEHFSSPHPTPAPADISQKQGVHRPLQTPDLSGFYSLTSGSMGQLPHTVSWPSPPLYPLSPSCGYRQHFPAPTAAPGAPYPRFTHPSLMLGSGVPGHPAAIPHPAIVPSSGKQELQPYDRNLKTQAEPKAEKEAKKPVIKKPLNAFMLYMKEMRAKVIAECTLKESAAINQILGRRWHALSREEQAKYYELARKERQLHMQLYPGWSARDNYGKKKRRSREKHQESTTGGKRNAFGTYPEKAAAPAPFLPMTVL
UniProt P35222: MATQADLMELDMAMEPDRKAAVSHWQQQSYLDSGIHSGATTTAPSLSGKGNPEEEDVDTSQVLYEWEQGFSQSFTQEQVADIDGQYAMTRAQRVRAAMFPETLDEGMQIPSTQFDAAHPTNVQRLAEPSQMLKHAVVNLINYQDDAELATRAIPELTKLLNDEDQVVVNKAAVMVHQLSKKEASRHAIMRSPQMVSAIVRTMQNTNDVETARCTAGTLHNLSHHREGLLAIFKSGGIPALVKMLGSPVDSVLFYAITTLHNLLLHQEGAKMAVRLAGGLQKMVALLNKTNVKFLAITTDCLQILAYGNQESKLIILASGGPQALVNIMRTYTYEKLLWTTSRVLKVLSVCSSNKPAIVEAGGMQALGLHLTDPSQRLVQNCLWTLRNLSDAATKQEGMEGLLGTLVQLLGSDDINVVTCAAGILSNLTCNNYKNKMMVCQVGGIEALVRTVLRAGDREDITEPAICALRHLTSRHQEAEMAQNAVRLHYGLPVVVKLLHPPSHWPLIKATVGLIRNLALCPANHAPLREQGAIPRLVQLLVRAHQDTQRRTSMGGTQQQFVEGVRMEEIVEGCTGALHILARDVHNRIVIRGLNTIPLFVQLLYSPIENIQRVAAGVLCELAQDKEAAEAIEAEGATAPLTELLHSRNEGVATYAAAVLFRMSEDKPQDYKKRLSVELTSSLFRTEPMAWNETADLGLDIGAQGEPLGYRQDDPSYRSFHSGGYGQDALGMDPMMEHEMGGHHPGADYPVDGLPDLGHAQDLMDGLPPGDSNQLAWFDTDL

The assay addresses Flag-tagged TCF1 (p45) (mouse) (UniProt Q00417). Nature of the assay: co-IP; Flag-tagged TCF1 (p45) precipitated from transfected HEK293T lysate (anti-FLAG agarose beads, FLAG peptide elution), components of the LSD1/CoREST complex detected in eluted IP fractions by immunoblot; 2 h at 4 °C. On the technique in general: Immunoblotting shows a protein as a band on a membrane.

No constants are given. Whether binding was seen depends on the method and setting. In cells and extracts the contact can be indirect. Some entries that bind do so weakly or less than the wild type.

As to β-catenin (from UniProt P35222 1-781), the binding entry was “binds”.
